The source of these data is PubChem BioAssay AID2685 (National Center for Advancing Translational Sciences (NCATS), 2010).

The list shows a part of the results. Shown are side measurements of this screen, not its main read-out; they come without a call. The list favours compounds with an active or inconclusive main result. Words in brackets tell the shape of the fitted curve; partial curves, single points and poor fits give uncertain potencies.

This test in a line: qHTS Assay for Lipid Storage Modulators in Drosophila S3 Cells.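 As to cell number change: cells counted by Cell Tracker Red CMTPX staining in the red channel.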 The following applies: BODIPY lipid droplet fluorescence, 18-24 h; for cell number change: measured here: cell count max response, cells fed with added oleic acid. A digest of the protocol: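 Drosophila S3 cells got compounds at several concentrations plus oleic acid (400 uM solution). Laser-scanning cytometry with 488 nm excitation read lipid droplets at 500-530 nm and cells at 575-640 nm. Percent activity was relative to 20 uM Triacsin C.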
(In general: In qHTS, concentration-response curves come from the screen itself.)

Setting [1] is: measured here: cell number channel AC50, cells fed with added oleic acid.
Setting [2] is: measured here: lipid fluorescence (Fed channel) AC50, cells fed with added oleic acid.

As to `Cc1ccc(C)c(N(CC(=O)NC2CCCC2)C(=O)c2csnn2)c1`, the cell number change was 0.952%.

Take `CC(C)(C)c1cc(NC(=O)COc2ccc(Br)cc2)n(-c2ccccc2)n1`: the AC50 under setting [1] is 2.31 µM [rising, partial curve].

Regarding `Cc1ccc(C2CC(c3cccc(Br)c3)n3nc(N)nc3N2)cc1` (configuration not stated), the AC50 under setting [1] is 4.61 µM [rising, single point].

On to `O=C(Nc1ccc(F)cc1)c1ccccc1F`, for which the cell number change was found to be 1.39%. For the same compound, the AC50 under setting [1] was 0.731 µM [falling, full curve]. For the same compound, under setting [2], the AC50 was 1.16 µM [falling, full curve].

Consider `COCc1nnc(NC(=O)c2ccc(S(=O)(=O)N(C)Cc3ccccc3)cc2)o1`, for which the cell number change came out at 6.52%. The AC50 under setting [2] is 29.1 µM [falling, partial curve, poor fit].

For `Cc1cccc(C)c1OCC(=O)NCc1nnc(SCC(=O)NC2CCCCC2C)n1C` (configuration not stated), the cell number change is 12.1%. Besides, under setting [1], the AC50 was 6.51 µM [rising, single point].

As to `Oc1cccc(C(Nc2nccs2)c2ccc3cccnc3c2O)c1` (configuration not stated), the cell number change is 81.8%. Under setting [1], the AC50 is 23.1 µM [rising, single point].

Take `N#C/C(=C(/O)COc1ccccc1)c1nnc2n1CCCCC2`: the cell number change was -37.6%.

For the compound `COc1ccc(-c2c(S(=O)(=O)c3ccccc3)cnn2-c2ccccc2)cc1`, the cell number change was -11.9%.

In the case of `Cc1nn(-c2ccccc2)c(Cl)c1C1C(C#N)=C(N)Oc2n[nH]c(C)c21` (configuration not stated), the cell number change is 0.541%. The AC50 under setting [2] is 0.291 µM [rising, partial curve, poor fit].

Turning to `O=C1Nc2ccccc2CCc2ccccc21`, the cell number change stood at 31.3%. Further, the AC50 under setting [1] was 14.6 µM [rising, single point]. Moreover, the AC50 under setting [2] was 29.1 µM [rising, single point].

Consider `Cc1nn(CC(N)=O)c(=O)c2ccccc12`, for which the cell number change is -1.83%. Moreover, under setting [2], the half-maximal activity concentration (AC50) is 0.00461 µM [falling, full curve, poor fit].

Regarding `Fc1cccc(CNc2ncnc3ccc(-c4cccnc4)cc23)c1`, the cell number change stood at 31.2%. Also, the AC50 under setting [1] was 18.4 µM [rising, single point].

On to `Cc1noc(C)c1C(=O)NCc1ccccc1`, for which the cell number change is -75.7%. Besides, the AC50 under setting [1] is 23.1 µM [falling, partial curve, poor fit]. Also, the AC50 under setting [2] is 0.731 µM [falling, full curve].

As for `COCCn1c(SCC(=O)Nc2nnc(C)s2)nnc1-c1cc2ccccc2cc1O`, the cell number change was 0.878%. The AC50 under setting [2] is 0.082 µM [falling, full curve, poor fit].

With `CC1=C(C(=O)Nc2ccc(C)cc2C)C(c2ccc(C)o2)NC(=S)N1` (configuration not stated), the cell number change came to 11.4%. The AC50 under setting [2] is 0.13 µM [falling, full curve, poor fit].

For `CC1CCCN(CCCNC(=O)c2ccc3c(c2)N(Cc2ccc(F)cc2)C(=O)c2ccccc2S3=O)C1` (configuration not stated), the cell number change came to 35.1%. In addition, the AC50 under setting [1] was 29.1 µM [rising, single point].

For orientation: AC50 means the midpoint of the concentration-response curve, whichever way the signal moves. High values mean activity only at high concentration, low ones activity at low concentration.
